# The campaign covered roughly 580,000 compounds. About 6,100 (1.1%) were called active. Inconclusive results, whose numbers are uncertain, are shown with a selection of clear calls. Calls come from the whole dose curve; as a rule, active = well fitted inhibition curve with a large enough effect; inconclusive = small, poorly fitted or top-dose-only effect, or another doubt; inactive = no such curve, though single readings can be large or run the other way. A potency beside an inconclusive call is a rough fit, not a confirmed value.
# The chains behind the UniProt entries cited, without tags or fusion partners. Where a name states a change or a piece, a line headed by the entry shows the natural chain unless it says otherwise.
# UniProt P18054: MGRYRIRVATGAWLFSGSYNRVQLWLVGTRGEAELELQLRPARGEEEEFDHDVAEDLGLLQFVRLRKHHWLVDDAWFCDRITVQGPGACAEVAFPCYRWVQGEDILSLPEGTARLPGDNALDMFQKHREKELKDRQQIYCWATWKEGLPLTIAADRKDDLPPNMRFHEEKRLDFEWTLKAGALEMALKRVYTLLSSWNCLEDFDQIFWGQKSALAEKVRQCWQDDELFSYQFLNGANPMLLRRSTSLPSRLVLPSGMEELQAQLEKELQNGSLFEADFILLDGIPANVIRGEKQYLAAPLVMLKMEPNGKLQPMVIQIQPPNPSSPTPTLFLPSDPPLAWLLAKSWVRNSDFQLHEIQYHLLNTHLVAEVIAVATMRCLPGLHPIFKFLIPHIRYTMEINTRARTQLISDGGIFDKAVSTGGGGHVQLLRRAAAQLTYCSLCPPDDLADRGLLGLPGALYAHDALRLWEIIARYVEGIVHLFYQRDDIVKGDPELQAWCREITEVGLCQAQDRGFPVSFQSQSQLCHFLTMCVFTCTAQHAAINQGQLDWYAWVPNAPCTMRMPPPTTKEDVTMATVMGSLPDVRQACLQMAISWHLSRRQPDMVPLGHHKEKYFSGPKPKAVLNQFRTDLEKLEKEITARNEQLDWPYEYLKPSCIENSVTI
# Target: Polyunsaturated fatty acid lipoxygenase ALOX12 (Homo sapiens) (UniProt P18054)
# Test: Primary qHTS assay for inhibitors of human arachidonate 12S-lipoxygenase (ALOX12): Round 2
# Conditions: purified 12hLO, xylenol orange hydroperoxide absorbance; series mostly up to 108 µM
# Outline: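 Purified human 12hLO at 150 nM in 25 mM Hepes, 0.01% Triton X-100, pH 7.0, preincubated 15 min at room temperature with compound. Reaction started with 40 uM arachidonic acid, 30 min at room temperature. Hydroperoxide measured by Fe-xylenol orange, 573/405 nm absorbance ratio.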
# Potency is the fitted concentration of half-maximal effect.
row,SMILES,Potency
1,CC12C3C=CC(C3)C1([Si](C)(C)C)C2C(=O)O (stereo unspecified),"inconclusive: 28.2 µM [inhibitor, single point]"
2,Cc1ccccc1-c1nc2ccccc2c(=O)n1/N=C/c1ccccc1[N+](=O)[O-],active: 31.6 µM
3,CC(C)(C)n1nnnc1C(c1ccncc1)N(Cc1ccccc1)Cc1ccco1 (stereo unspecified),"inconclusive: 28.2 µM [inhibitor, partial curve, poor fit]"
4,S=c1[nH]nc(-c2ccc(Br)cc2)n1-c1ccc(Br)cc1,"inconclusive: 6.31 µM [inhibitor, full curve]"
5,Cc1cc(C)nc(NC2=NCCN2C(=S)Nc2ccc(C)c(C)c2)n1,"inconclusive: 112 µM [inhibitor, single point]"
6,O=C(COc1ccc(F)cc1)c1c(O)cc(O)cc1O,inactive
7,CC(=C/c1ccco1)/C=N/NC(=O)CSc1nnc(SCc2ccc(C)cc2)s1,"inconclusive: 50.1 µM [inhibitor, partial curve, poor fit]"
8,C=Cc1ccc(Cn2c(=O)c(-c3noc(CC)n3)c3n(c2=O)CCCC3)cc1,"inconclusive: 79.4 µM [inhibitor, single point]"
9,COc1ccc(C(=O)N/N=C/c2ccc(OC)c(COc3ccc(F)cc3F)c2)cc1,inactive
10,CC(C)CC(=O)N1CCN(Cc2cccc(F)c2)CC1,"inconclusive: 0.562 µM [inhibitor, full curve, poor fit]"
11,CCOc1cc(/C=C2\SC(N3CCCCC3)=NC2=O)ccc1O,"inconclusive: 70.8 µM [inhibitor, partial curve, poor fit]"
12,CC(C)C1C(=O)N(Cc2cn(CCC3OCCO3)nn2)CCS(=O)(=O)N1Cc1ccc(-c2ccncc2)cc1 (stereo unspecified),"inconclusive: 89.1 µM [inhibitor, single point]"
13,Cc1cc(NC(=O)CSC2=NCCS2)no1,"inconclusive: 112 µM [inhibitor, partial curve, poor fit]"
14,CN(C)C(CNC(=O)/C=C/c1ccccc1)c1ccsc1 (stereo unspecified),inactive
15,Cc1ccc2oc(C(=O)Nc3ccc(S(N)(=O)=O)cc3)cc(=O)c2c1,"inconclusive: 141 µM [inhibitor, partial curve, poor fit]"
16,CN(C)c1ccc(CN2CCC3(CN[S+](=O)([O-])c4ccccc4N3)C2)cc1 (stereo unspecified),"inconclusive: 25.1 µM [inhibitor, full curve]"
17,Cc1noc(C)c1CCCNC(=O)C1CCN(C(=O)N2CC3CC(C2)[C@H]2CCCC(=O)N2C3)CC1 (stereo partly specified),inactive
18,CC(C1CC1)N(Cc1ccccc1)S(=O)(=O)c1cccc2nsnc12 (stereo unspecified),"inconclusive: 39.8 µM [inhibitor, partial curve, poor fit]"
19,c1ccc(N=NN2CCOCC2)cc1,"inconclusive: 50.1 µM [inhibitor, partial curve, poor fit]"
20,COc1cc2c(cc1OC)CN(C(=S)Nc1ccc(C)cc1C)CC2,"inconclusive: 35.5 µM [inhibitor, partial curve, poor fit]"
21,Clc1nccnc1N/N=C/c1ccc(Br)cc1,"inconclusive: 3.55 µM [inhibitor, full curve, poor fit]"

row,SMILES,Potency
1,CC(NC(=O)c1cc(F)cc(F)c1)C1CC2CCC1C2 (stereo unspecified),inactive
2,CC(C)Oc1cccc(C(=O)C2CCCN(C(=O)CCc3cnn(C)c3)C2)c1 (stereo unspecified),inactive
3,O=C1Cc2cc(S(=O)(=O)Nc3ccc(N4CCOCC4)cc3)ccc2N1,inactive
4,CCN(CC)S(=O)(=O)c1ccc(N2CCOCC2)c(NC(=O)c2c3c(nc4ccccc24)CCC3)c1,"inconclusive: 25.1 µM [inhibitor, partial curve]"
5,C#CCOCCOCCOCCNc1nc(N2CCN(C(=O)CCCCCCCCCCNC(=O)[C@@H]([C@H](C)O)n3cc(C)nn3)CC2)nc(N2CCN(C(=O)CCCCCCCCCCNC(=O)[C@@H]([C@H](C)O)n3cc(C)nn3)CC2)n1,"inconclusive: 50.1 µM [inhibitor, partial curve, poor fit]"
6,COc1ccc(NC(=O)c2cc(-c3ccccc3)nc3c2cnn3C(C)C)cc1,inactive
7,CC/C(=N\NC(=S)Nc1ccc(OC)cc1)c1ccc(OC(F)F)cc1,active: 35.5 µM
8,CN(Cc1ccccc1N1CCCC1)C(=O)c1ccc(S(=O)(=O)N2CCCC2)cc1,inactive
9,COc1ccc(NC(=O)NC2COc3ccccc3C2)c(OC)c1 (stereo unspecified),"inconclusive: 158 µM [inhibitor, partial curve, poor fit]"
10,COc1ccc(-c2nc3c4ccccc4ccn3c2CN2CCCCC2)cc1OC,"inconclusive: 39.8 µM [inhibitor, partial curve, poor fit]"
11,O=C1/C(=C\c2ccc(O)cc2)CCC1CNc1ccc(Cl)cc1 (stereo unspecified),"inconclusive: 50.1 µM [inhibitor, partial curve, poor fit]"
12,CCOc1ccc(CCN2C(=S)N([C@@H](CC(C)C)CN3CCC[C@@H]3CN3C(=S)NC[C@@H]3CC(C)C)C[C@@H]2CC(C)C)cc1,"inconclusive: 14.1 µM [inhibitor, partial curve, poor fit]"
13,Cc1cc(C)c(S(=O)(=O)Nc2ccc[nH]c2=O)c(C)c1,"inconclusive: 44.7 µM [inhibitor, single point]"
14,Cc1cc(C(=O)Nc2cnn(C(C)(C)C(=O)NCc3ccco3)c2)c(C)o1,"inconclusive: 11.2 µM [inhibitor, partial curve, poor fit]"
15,COc1ccc(NC(=O)c2cc3ccc(O)cc3oc2=O)cc1,inactive
16,CCN(CC)C(=O)Cn1c(C)ccc(NS(=O)(=O)c2ccc(C)cc2)c1=O,"inconclusive: 2.51 µM [inhibitor, full curve, poor fit]"
17,Cc1ccc(C(=O)N2CCc3sc(C(=O)O)cc3C2)cc1,"inconclusive: 28.2 µM [inhibitor, single point]"
18,CCCCCOC(=O)C(C)Sc1n[nH]c(=O)[nH]c1=O (stereo unspecified),inactive
19,Cc1c(C(=O)Nc2nc(-c3ccc(F)cc3)ns2)oc2ccc(Br)cc12,inactive
20,CN1CC(=O)N(C2CCC2)Cc2c(NC3CC3)ncnc21,"inconclusive: 31.6 µM [inhibitor, full curve, poor fit]"

# Part of the list above in order of formula weight, descending.
row,SMILES,Potency
12,CCOc1ccc(CCN2C(=S)N([C@@H](CC(C)C)CN3CCC[C@@H]3CN3C(=S)NC[C@@H]3CC(C)C)C[C@@H]2CC(C)C)cc1,"inconclusive: 14.1 µM [inhibitor, partial curve, poor fit]"
4,CCN(CC)S(=O)(=O)c1ccc(N2CCOCC2)c(NC(=O)c2c3c(nc4ccccc24)CCC3)c1,"inconclusive: 25.1 µM [inhibitor, partial curve]"
10,COc1ccc(-c2nc3c4ccccc4ccn3c2CN2CCCCC2)cc1OC,"inconclusive: 39.8 µM [inhibitor, partial curve, poor fit]"
16,CCN(CC)C(=O)Cn1c(C)ccc(NS(=O)(=O)c2ccc(C)cc2)c1=O,"inconclusive: 2.51 µM [inhibitor, full curve, poor fit]"
2,CC(C)Oc1cccc(C(=O)C2CCCN(C(=O)CCc3cnn(C)c3)C2)c1 (stereo unspecified),inactive
7,CC/C(=N\NC(=S)Nc1ccc(OC)cc1)c1ccc(OC(F)F)cc1,active: 35.5 µM
14,Cc1cc(C(=O)Nc2cnn(C(C)(C)C(=O)NCc3ccco3)c2)c(C)o1,"inconclusive: 11.2 µM [inhibitor, partial curve, poor fit]"
11,O=C1/C(=C\c2ccc(O)cc2)CCC1CNc1ccc(Cl)cc1 (stereo unspecified),"inconclusive: 50.1 µM [inhibitor, partial curve, poor fit]"
17,Cc1ccc(C(=O)N2CCc3sc(C(=O)O)cc3C2)cc1,"inconclusive: 28.2 µM [inhibitor, single point]"
13,Cc1cc(C)c(S(=O)(=O)Nc2ccc[nH]c2=O)c(C)c1,"inconclusive: 44.7 µM [inhibitor, single point]"
20,CN1CC(=O)N(C2CCC2)Cc2c(NC3CC3)ncnc21,"inconclusive: 31.6 µM [inhibitor, full curve, poor fit]"
1,CC(NC(=O)c1cc(F)cc(F)c1)C1CC2CCC1C2 (stereo unspecified),inactive
